Data taken from US20180369203A1, “METHODS OF TREATING CANCER BY ADMINISTERING A MEK INHIBITOR IN COMBINATION WITH A PROTEASOME INHIBITOR” (The Jackson Laboratory, priority 2015, published 2018).
At least one compound was matched to its structure with a doubt left.

Assays:
[1] = test system: amyloid oligomers (AOs); experiment: Amyloid oligomer ELISA (A11) in murine cells (primary MEFs, NIH3T3); type: cell-based, mouse; conditions: 20 nM AZD6244, 24 hr
Procedure: FIGS. 5A-Y show MEK and proteasome inhibition provoke protein aggregation and amyloidogenesis. (A-B) WM115 cells treated with 20 nM AZD6244, 100 nM Bortezomib, or both for 24 hr were stained with Lys48-specific ubiquitin antibodies. Arrowheads mark ubiquitin-positive aggregates. Scale bar: 10 μm. Amounts of aggregates per cell were quantitated using ImageJ (median, n≥100, ANOVA). (C-F) Following transfection with polyQ79 plasmids alone or with both polyQ79 and HSF1^S326D plasmids for one day, HEK293T cells were treated with inhibitors as described in (A-B). Cells were either analyzed for aggregate size or stained with 10 μM ThT. (G) Treated tumor cell lines were stained with 10 μM ThT. Geometric means were used to calculate fold changes in ThT fluorescence intensity and the log 2(FC) values were presented as a heat map. […] Following treatments, AOs were quantitated by ELISA using A11 antibodies (mean±SD, n=3, ANOVA). (I) Intrinsic AOs were detected in human tumor cell lines (mean±SD, n=3, ANOVA). […] Amyloids were quantitated by ELISA (mean±SD, n=3, Student's t-test). […] AF formation was monitored by ThT binding (mean±SD, n=3, ANOVA). […] Amyloids were quantitated (mean±SD, n=3, Student's t-test). […] Viable cells were quantitated by CellTiter® blue (mean±SD, n=6, Student's t-test). […] Viable cells were quantitated (mean±SD, n=6, ANOVA). […]
This figure is related to FIG. 5. […] (C) Quantitation of protein aggregate size. […]

[2] = test system: A2058 cells; experiment: Immunoblotting of HSF1, HSPs and Lys48 ubiquitination in melanoma cells; type: cell-based, human
[3] = test system: amyloid oligomers (AOs); experiment: Amyloid oligomer ELISA (A11) in human tumor, immortalized and primary cells; type: cell-based; conditions: 20 nM AZD6244, 100 nM Bortezomib, or both, 24 hr
Procedure: FIGS. 5A-Y show MEK and proteasome inhibition provoke protein aggregation and amyloidogenesis. (A-B) WM115 cells treated with 20 nM AZD6244, 100 nM Bortezomib, or both for 24 hr were stained with Lys48-specific ubiquitin antibodies. Arrowheads mark ubiquitin-positive aggregates. Scale bar: 10 μm. Amounts of aggregates per cell were quantitated using ImageJ (median, n≥100, ANOVA). (C-F) Following transfection with polyQ79 plasmids alone or with both polyQ79 and HSF1^S326D plasmids for one day, HEK293T cells were treated with inhibitors as described in (A-B). Cells were either analyzed for aggregate size or stained with 10 μM ThT. (G) Treated tumor cell lines were stained with 10 μM ThT. Geometric means were used to calculate fold changes in ThT fluorescence intensity and the log 2(FC) values were presented as a heat map. (H) HEK293T cells were transfected with LacZ or polyQ79 plasmid. Following treatments, AOs were quantitated by ELISA using A11 antibodies (mean±SD, n=3, ANOVA). (I) Intrinsic AOs were detected in human tumor cell lines (mean±SD, n=3, ANOVA). […] Amyloids were quantitated by ELISA (mean±SD, n=3, Student's t-test). […] AF formation was monitored by ThT binding (mean±SD, n=3, ANOVA). […] Amyloids were quantitated (mean±SD, n=3, Student's t-test). […] Viable cells were quantitated by CellTiter® blue (mean±SD, n=6, Student's t-test). […] Viable cells were quantitated (mean±SD, n=6, ANOVA). Relative changes in viable cells after treatment were calculated by normalizing the values of AZD6244-treated cells against the values of DMSO-treated cells at each time point. (U)-(W) Following treatments with 20 nM AZD6244, 100 nM Bortezomib, or both for 24 hr, AOs were quantitated in primary MEFs and human cells (mean±SD, n=3, ANOVA). (X and Y) Cells were treated with 50 μM Q-VD-OPh overnight and AOs were quantitated (mean±SD, n=3, Student's t-test). […]
To quantitate soluble amyloid prefibrillar oligomers, 20 μg soluble cellular proteins diluted in PBS were incubated for each well in a 96-well ELISA plate at 4° C. overnight followed by blocking (5% non-fat milk in PBS-T) at RT for 1 hr. […]

[4] = test system: amyloid oligomers (AOs); experiment: Amyloid oligomer ELISA in tissues of AZD6244-treated C57BL/6J mice; type: in vivo; conditions: different doses of AZD6244

For `Cn1cnc2c(F)c(Nc3ccc(Br)cc3Cl)c(C(=O)NOCCO)cc21` [AZD6244, selumetinib], the “AOs in primary mouse embryonic fibroblasts (MEFs)” value [1] was “did not induce AOs”, the “HSF1 Ser326 phosphorylation” value ([2]; A2058, 20 nM AZD6244) was “diminished” and the HSF1 ubiquitination ([2]; A2058, 20 nM AZD6244) was “promotes”. For the same compound, the HSPs ([2]; A2058, 20 nM AZD6244) was “reduced”, the “overall ubiquitination (Lys48-specific, detergent-soluble and -insoluble fractions)” value ([2]; A2058, 20 nM AZD6244) was “induced” and the HSF1 protein stability ([2]; A2058, overnight AZD6244) was “destabilized”. The HSF1 protein level ([2]; WM115 and A2058, 20 nM AZD6244, 24 hrs) was “depleted”, the “AO levels in MCF10A cells” value ([3]; immortalized human mammary epithelial cells) was “slight induction” and the “AO levels in PHMC” value ([3]; primary human mammary epithelial cells) was “no induction”. For the same compound, the “AO levels in MCF7 cells” value ([3]; tumorigenic mammary epithelial cells) was “marked AO induction” and the “AOs in primary mouse tissues” value [4] was “did not induce AOs”.
